Laboratory results: PubChem BioAssay AID686943 (Drosophila RNAi Screening Center, 2013)

Test: 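Fly genes whose loss alters ERK activation after insulin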 (primary screen)
Cell system: Drosophila S2R+ haemocyte-like cells expressing YFP-tagged ERK (Rolled)
Knock-down reagent: long dsRNA against Drosophila genes
Treatment: insulin stimulation versus unstimulated cells; dose and duration not given
Measurement: 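Per-plate z-scores of phospho-ERK immunostaining normalised to YFP-tagged ERK, measured with and without insulin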
Scale: replicate 1, z-score of dpERK with insulin and replicate 2, z-score of dpERK with insulin: higher = more active ERK per ERK-YFP after insulin; replicate 1, z-score of dpERK under basal conditions: higher = more basal active ERK per ERK-YFP
The screen tested about 23,000 reagents; below is a random part of those with a known target gene and a result. 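Extra replicates exist only for a retested subset of genes; insulin dose and duration not given; both raised and lowered dpERK matter.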 Names joined by + are all predicted targets of the reagent. Not all columns of the deposit are shown. Not stated in the record: the amount of reagent, the time to read-out.

no.	target gene	dsRNA	replicate 1, z-score of dpERK with insulin	replicate 2, z-score of dpERK with insulin	replicate 1, z-score of dpERK under basal conditions
1	CG18787 + CG18789	DRSC02698	-0.82	2.46	-0.76
2	GstT3 (Glutathione S transferase T3)	DRSC20541	-0.14	0.12	-0.53
3	VhaM9.7-d (Vacuolar H[+] ATPase M9.7 subunit d)	DRSC15028	-0.2	0.82	-0.12
4	byn (brachyenteron)	DRSC11332	-0.08	0.18	0.2
5	Cp36 (Chorion protein 36)	DRSC18452	0.55	0.04	0.49
6	Yeti	DRSC21138	0.85	0.1	0.87
7	CG14823	DRSC10194	0.22	0.94	-0.34
8	Got2 (Glutamate oxaloacetate transaminase 2)	DRSC00643	-0.19	0.74	-0.34
9	Rbp4 (RNA-binding protein 4)	DRSC16818	0.18	1.27	1.27
10	CG13713	DRSC08322	-0.1	0.18	0.14
11	Six4	DRSC11881	0.59	-0.01	-1.17
12	BOD1 (Biorientation Defective 1)	DRSC15824	0.41	-0.75	0.38
13	Cyp309a1 (Cytochrome P450 309a1)	DRSC00747	0.46	0.29	-0.39
14	L (Lobe)	DRSC06666	-1.88	-2.48	0.33
15	L (Lobe)	DRSC06668	-0.44	-0.03	0.61
16	CG11109	DRSC11633	0.34	-0.72	-0.8
17	CG14818	DRSC18548	2.95	0.36	0.32
18	sif (still life)	DRSC08759	-0.06	-0.04	-0.04
19	sif (still life)	DRSC11395	1.6	1.07	-0.55
20	sif (still life)	DRSC22065	-0.08	-0.28	-0.45
21	sif (still life)	DRSC22828	1.2	0.44	0.61
22	CG5618	DRSC11780	-0.05	-0.22	-0.73
23	na (narrow abdomen)	DRSC19639	-1.41	0.22	-0.62
24	CG34002	DRSC09512	1.61	-0.19	1.07
25	CG5664	DRSC11782	-0.07	-0.48	0.07
26	CG8192	DRSC07101	-1.4	-3.93	-3.02
27	lds (lodestar)	DRSC16988	0.22	-0.32	0.71
28	CG32507	DRSC20421	-0.3	1.02	1.08
29	CG10738	DRSC09792	-0.19	0.04	0.06
30	Spc105R (Spc105-related)	DRSC11663	-0.66	-2.76	-3.68
31	Klp61F (Kinesin-like protein at 61F)	DRSC08671	-3.27	-1.39	2.98
32	Tim10 + CG42497	DRSC04664	-0.84	1.52	-0.41
33	CG16753	DRSC08489	0.91	-0.23	0.62
34	h-cup + Rbp	DRSC14990	0.26	0.12	-0.23

Continued (8 carried over from the part before).
no.	target gene	dsRNA	replicate 1, z-score of dpERK with insulin	replicate 2, z-score of dpERK with insulin	replicate 1, z-score of dpERK under basal conditions
27	lds (lodestar)	DRSC16988	0.22	-0.32	0.71
28	CG32507	DRSC20421	-0.3	1.02	1.08
29	CG10738	DRSC09792	-0.19	0.04	0.06
30	Spc105R (Spc105-related)	DRSC11663	-0.66	-2.76	-3.68
31	Klp61F (Kinesin-like protein at 61F)	DRSC08671	-3.27	-1.39	2.98
32	Tim10 + CG42497	DRSC04664	-0.84	1.52	-0.41
33	CG16753	DRSC08489	0.91	-0.23	0.62
34	h-cup + Rbp	DRSC14990	0.26	0.12	-0.23
35	BomBc1 (Bomanin Bicipital 1)	DRSC06501	0.73	-0.03	-0.31
36	Pld (Phospholipase D)	DRSC04854	0.99	0.11	-0.49
37	CG11034	DRSC02121	0.67	-0.33	-1.02
38	CG11034	DRSC02122	0.39	0.48	0.27
39	CG13978	DRSC14720	-0.15	-0.13	-0.24
40	Csl4	DRSC02944	0.01	0.68	1.04
41	Csl4	DRSC22664	-0.2	-0.6	1.58
42	Lim1 (LIM homeobox 1)	DRSC17752	0.26	0.25	-0.65
43	Lim1 (LIM homeobox 1)	DRSC18677	1.4	0.32	-0.77
44	mbc (myoblast city)	DRSC16995	-0.79	-0.45	1.88
45	Pgant1 (Polypeptide N-Acetylgalactosaminyltransferase 1)	DRSC07095	0.31	-0.37	0.02
46	Polr2A (RNA polymerase II subunit A)	DRSC20280	-0.37	0.99	0.53
47	svr (silver)	DRSC17293	-0.1	-0.25	0.14
48	svr (silver)	DRSC18841	0.69	0.79	1.22
49	CG4592	DRSC02761	0.18	-0.18	-0.72
50	CG42514	DRSC10428	-1.01	-0.64	-0.51
51	Decay (Death executioner caspase related to Apopain/Yama)	DRSC16930	-0.28	0.24	-0.2
52	MtnD (Metallothionein D)	DRSC22733	0.49	0.5	0.13
53	CG2540	DRSC19856	0.68	0.24	0.13
54	Orp8 (Oxysterol-binding protein-related protein 8)	DRSC15110	1.32	-0.83	0.39
55	Orp8 (Oxysterol-binding protein-related protein 8)	DRSC15712	-0.23	0	-0.48
56	CG9932	DRSC03275	-0.85	-0.55	-0.42
57	CG10185	DRSC14205	0.48	0.37	-0.83
